In patent US9956204B2, “Composition for exterminating scuticociliates in fish including mebendazole” (NATIONAL INSTITUTE OF FISHERIES SCIENCE, priority 2016, dated 2018):
For at least one compound, name, drawing or mass did not settle the structure.

How the values were obtained:
scuticociliates [1] = assay: Scuticociliates extermination effect of candidate substances in seawater medium; format: cell-based; details: 4 hour
Description: For this, scuticociliates were cultured in CHSE-214 cell line (using MEM medium), and then scuticociliates were collected and centrifuged with sterilized seawater or artificial seawater (20‰) to replace them with a seawater medium. Each of 100 μl (1×10^5) was dispensed into each well of 96 wells, followed by further culture for 30 minutes. The candidate substances diluted in seawater to have a volume of 100 μl per each concentration were mixed with scuticociliates to have the final volume of 200 μl and cultured for 4 hour.

scuticociliates [2] = assay: Scuticociliates extermination effect of candidate substances in MEM medium; format: cell-based
Description: CHSE-214 cell line into which scuticociliates were inoculated was cultured in advance. The CHSE-214 cell line was cultured in an incubator using an MEM medium at 22° C. Scuticociliates inoculated into the cell line proliferated for 3 days by which the number reaches to be capable of analyzing in vitro anti-scuticociliates effect. Scuticociliates that feed on the cell line and sufficiently grow were mixed with the candidate substance and the activity of scuticociliates was measured.
In order to analyze the antiparasitic activity of the above 19 types of candidate substances of scuticociliates extermination drugs, scuticociliates were cultured for 3 days, and 100 μl (1×10^5) was dispensed into each well of 96 wells. The candidate substances were diluted by each concentration and the final volume was dispensed into 100 μl. Thereafter, the two were mixed and finally made into 200 μl.

Measured: Survival or Death of scuticociliates (activity and shape, microscope)

CO/N=C1\C[C@]2(C[C@@H]3C[C@@H](C/C=C(\C)C[C@@H](C)/C=C/C=C4\CO[C@@H]5[C@H](O)C(C)=C[C@@H](C(=O)O3)[C@]45O)O2)O[C@H](/C(C)=C/C(C)C)[C@H]1C [Moxidectin]
Death: scuticociliates [1]; Dosage 1000 ppm | scuticociliates [2]; Dosage 800 ppm | scuticociliates [2]; Dosage 1000 ppm | scuticociliates [2]; Dosage 2000 ppm | scuticociliates [2]; Dosage 3000 ppm
Δ: scuticociliates [2]; Dosage 500 ppm
Survival: scuticociliates [1]; Dosage 300 ppm | scuticociliates [1]; Dosage 400 ppm | scuticociliates [1]; Dosage 500 ppm | scuticociliates [1]; Dosage 600 ppm | scuticociliates [1]; Dosage 700 ppm | scuticociliates [2]; Dosage 100 ppm | scuticociliates [2]; Dosage 200 ppm | scuticociliates [2]; Dosage 400 ppm
